PMC6609651
No constants are given. Whether binding was seen depends on the method and setting. Binding can be weak; no strength is given. Each block holds one substance with its values, some of them ahead of it.

The chains behind the UniProt entries cited, without tags or fusion partners. Where a name states a change or a piece, a line headed by the entry shows the natural chain unless it says otherwise. Residues count along the entry.
UniProt Q03591, residues 19-330: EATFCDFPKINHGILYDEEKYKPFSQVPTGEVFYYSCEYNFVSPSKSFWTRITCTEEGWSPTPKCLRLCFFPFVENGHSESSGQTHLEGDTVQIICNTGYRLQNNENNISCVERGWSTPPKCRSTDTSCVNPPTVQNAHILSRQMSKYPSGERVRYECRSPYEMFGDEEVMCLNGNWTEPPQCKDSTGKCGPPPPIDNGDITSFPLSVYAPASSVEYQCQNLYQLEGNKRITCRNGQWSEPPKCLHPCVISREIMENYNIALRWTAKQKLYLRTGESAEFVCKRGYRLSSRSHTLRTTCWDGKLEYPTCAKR
UniProt Q9UHX3: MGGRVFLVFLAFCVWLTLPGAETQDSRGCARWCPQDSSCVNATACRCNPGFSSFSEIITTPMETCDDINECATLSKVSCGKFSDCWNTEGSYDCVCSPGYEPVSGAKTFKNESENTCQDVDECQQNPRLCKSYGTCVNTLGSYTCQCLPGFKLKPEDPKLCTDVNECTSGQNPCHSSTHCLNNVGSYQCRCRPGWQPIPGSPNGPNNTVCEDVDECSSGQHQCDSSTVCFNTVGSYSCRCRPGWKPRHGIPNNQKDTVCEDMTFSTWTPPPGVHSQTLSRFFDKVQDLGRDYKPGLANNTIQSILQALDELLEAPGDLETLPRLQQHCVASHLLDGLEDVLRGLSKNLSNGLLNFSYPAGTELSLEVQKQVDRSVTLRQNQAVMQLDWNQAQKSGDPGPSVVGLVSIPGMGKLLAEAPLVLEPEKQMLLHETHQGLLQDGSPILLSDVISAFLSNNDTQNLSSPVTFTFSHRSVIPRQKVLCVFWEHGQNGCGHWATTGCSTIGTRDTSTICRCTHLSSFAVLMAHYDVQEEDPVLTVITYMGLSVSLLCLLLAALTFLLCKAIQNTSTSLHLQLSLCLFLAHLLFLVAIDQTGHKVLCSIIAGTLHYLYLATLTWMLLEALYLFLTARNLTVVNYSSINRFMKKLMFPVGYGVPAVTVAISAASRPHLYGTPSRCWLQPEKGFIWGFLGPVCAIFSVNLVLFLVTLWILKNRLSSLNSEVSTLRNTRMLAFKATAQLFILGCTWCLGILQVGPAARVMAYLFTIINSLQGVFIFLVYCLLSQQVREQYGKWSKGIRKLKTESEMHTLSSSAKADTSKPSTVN
UniProt P36980, residues 19-270: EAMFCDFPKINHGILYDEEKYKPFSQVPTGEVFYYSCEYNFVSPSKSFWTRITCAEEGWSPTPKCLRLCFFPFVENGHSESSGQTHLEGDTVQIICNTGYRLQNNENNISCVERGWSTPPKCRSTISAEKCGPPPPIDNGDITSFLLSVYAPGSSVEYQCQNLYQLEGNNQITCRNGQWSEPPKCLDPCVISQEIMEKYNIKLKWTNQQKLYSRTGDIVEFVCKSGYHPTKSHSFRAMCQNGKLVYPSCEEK

Key:
FHR1 SCR1-2 (human) [1] = target: FHR1 SCR1-2 (human) (UniProt Q03591); assay: ELISA; competition: FHR1 SCR1-2 (5 μg mL^-1) immobilised, NHS (5%) in DPBS 1 h at 37 °C, FHR2 or FHR2DM (0, 1, 5 or 15 μg mL^-1) added; FHR1 detected with monoclonal antibody C18, FHR2DM with monoclonal FHR2 antibody; both purified
FHR1 SCR1-2 (human) [2] = target: FHR1 SCR1-2 (human) (UniProt Q03591); assay: ELISA; FHR1 SCR1-2 (5 μg mL^-1) immobilised over night at 4 °C, incubated with NHS (5%) in DPBS 1 h at 37 °C; serum FHR1 detected with monoclonal antibody C18; only the target purified
[3] = target: Recombinant human EMR2 (human) (UniProt Q9UHX3); assay: SPR; Biacore 3000, as described for MDA-LDL (CM5 chip, standard amine coupling, flow 5 μL min^-1, 25 °C); FHR1 125-2,000 nM in PBS injected; both purified
[4] = target: Recombinant factor H-related protein FHR1 (human) (UniProt Q03591); assay: ELISA; FHR1 (10 μg mL^-1) or gelatin immobilised on a microtiter plate o.n. at 4 °C, blocked; EMR2 (30 μg mL^-1) 2 h at 37 °C; detected with polyclonal EMR2 antiserum; both purified

- binding (FHR1 SCR1-2 (human) [1]): binds
Substance: Recombinant FHR2 (from UniProt P36980 19-270)

- binding (FHR1 SCR1-2 (human) [2]): binds
Substance: Serum-derived FHR1 (from UniProt Q03591 19-330)

- binding [3]: binds
Substance: Recombinant factor H-related protein FHR1 (from UniProt Q03591 19-330)

- binding [4]: binds
Substance: Recombinant human EMR2 (from UniProt Q9UHX3) (receptor)
